Test results taken from the supplement of paper PMC10849652.
The list shows a part of the results.

By UniProt entry, the sequences of proteins in these tests, tags left out. Where a name states a change or a piece, a line headed by the entry shows the natural chain unless it says otherwise.
UniProt Q14847: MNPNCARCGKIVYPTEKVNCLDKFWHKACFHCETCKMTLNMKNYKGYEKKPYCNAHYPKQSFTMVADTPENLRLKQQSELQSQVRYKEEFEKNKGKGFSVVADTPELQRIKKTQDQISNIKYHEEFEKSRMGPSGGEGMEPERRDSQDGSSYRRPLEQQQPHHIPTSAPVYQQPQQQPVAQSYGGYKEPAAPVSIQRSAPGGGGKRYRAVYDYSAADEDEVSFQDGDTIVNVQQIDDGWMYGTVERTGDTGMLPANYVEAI
UniProt Q8N9N7: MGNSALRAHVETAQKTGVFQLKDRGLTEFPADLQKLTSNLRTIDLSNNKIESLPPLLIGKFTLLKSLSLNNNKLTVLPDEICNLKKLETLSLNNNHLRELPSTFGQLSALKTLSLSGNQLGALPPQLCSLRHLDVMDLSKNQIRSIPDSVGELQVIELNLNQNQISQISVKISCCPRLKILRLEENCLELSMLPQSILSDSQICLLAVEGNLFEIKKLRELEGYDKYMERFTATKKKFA
UniProt Q6UWP7: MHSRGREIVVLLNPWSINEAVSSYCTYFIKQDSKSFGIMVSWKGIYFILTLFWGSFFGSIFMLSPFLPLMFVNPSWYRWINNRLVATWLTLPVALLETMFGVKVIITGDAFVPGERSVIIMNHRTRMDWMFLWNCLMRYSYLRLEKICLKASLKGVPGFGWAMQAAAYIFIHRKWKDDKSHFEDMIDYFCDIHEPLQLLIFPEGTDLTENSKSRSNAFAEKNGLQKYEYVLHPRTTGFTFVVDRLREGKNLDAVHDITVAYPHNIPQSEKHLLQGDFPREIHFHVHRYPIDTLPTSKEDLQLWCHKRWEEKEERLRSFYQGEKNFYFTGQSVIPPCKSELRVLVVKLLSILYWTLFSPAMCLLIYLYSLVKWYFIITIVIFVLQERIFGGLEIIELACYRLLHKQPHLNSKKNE
UniProt Q8IWU2: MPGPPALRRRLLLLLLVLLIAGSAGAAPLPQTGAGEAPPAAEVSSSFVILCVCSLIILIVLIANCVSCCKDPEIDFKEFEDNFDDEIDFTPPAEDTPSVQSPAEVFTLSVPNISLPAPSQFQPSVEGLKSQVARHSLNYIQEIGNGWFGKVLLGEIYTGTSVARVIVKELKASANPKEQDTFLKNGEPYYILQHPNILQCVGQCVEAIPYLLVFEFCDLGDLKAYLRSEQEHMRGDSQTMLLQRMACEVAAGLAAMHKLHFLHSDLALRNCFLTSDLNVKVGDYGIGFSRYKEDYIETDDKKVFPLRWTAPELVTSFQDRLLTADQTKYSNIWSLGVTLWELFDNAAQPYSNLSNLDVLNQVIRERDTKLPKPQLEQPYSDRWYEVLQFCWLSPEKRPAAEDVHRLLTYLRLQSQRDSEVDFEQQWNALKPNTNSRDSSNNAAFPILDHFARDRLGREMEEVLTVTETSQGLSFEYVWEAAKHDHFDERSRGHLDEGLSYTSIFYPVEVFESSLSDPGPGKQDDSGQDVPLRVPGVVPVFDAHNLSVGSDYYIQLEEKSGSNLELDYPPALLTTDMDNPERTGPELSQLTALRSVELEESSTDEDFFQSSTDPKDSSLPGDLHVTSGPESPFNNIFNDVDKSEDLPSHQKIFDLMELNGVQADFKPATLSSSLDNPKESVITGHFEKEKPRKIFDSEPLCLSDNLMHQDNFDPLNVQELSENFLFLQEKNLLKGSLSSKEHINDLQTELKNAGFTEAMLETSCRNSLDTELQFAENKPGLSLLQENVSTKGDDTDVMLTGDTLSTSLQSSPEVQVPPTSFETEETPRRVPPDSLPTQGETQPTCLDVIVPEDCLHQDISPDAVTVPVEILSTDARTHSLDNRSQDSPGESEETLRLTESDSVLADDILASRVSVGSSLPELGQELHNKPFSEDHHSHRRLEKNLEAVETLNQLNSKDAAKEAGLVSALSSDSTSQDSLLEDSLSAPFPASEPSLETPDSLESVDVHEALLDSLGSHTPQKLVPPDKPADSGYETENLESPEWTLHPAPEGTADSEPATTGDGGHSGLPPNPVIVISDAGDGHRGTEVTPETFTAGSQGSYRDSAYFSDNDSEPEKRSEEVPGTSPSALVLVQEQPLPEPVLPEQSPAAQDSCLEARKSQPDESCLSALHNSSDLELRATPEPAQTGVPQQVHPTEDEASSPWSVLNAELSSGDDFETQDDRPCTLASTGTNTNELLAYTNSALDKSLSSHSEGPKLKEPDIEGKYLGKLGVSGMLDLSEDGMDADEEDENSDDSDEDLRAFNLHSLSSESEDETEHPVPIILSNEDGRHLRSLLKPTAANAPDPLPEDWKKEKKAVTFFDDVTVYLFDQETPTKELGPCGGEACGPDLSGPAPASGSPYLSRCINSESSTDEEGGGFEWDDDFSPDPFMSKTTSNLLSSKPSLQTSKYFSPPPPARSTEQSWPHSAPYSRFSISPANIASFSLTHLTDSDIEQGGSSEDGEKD
UniProt Q9NS86: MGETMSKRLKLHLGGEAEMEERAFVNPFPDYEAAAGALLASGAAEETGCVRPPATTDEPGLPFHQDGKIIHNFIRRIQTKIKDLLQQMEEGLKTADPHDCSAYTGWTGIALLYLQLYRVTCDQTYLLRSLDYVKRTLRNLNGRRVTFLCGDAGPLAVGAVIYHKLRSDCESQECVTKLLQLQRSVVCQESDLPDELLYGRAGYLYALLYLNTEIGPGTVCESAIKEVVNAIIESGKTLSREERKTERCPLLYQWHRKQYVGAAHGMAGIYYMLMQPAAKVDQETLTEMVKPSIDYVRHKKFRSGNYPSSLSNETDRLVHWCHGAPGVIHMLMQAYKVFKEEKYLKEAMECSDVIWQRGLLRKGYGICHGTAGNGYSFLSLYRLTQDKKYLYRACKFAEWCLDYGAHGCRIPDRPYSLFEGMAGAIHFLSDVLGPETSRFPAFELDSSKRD
UniProt P28838: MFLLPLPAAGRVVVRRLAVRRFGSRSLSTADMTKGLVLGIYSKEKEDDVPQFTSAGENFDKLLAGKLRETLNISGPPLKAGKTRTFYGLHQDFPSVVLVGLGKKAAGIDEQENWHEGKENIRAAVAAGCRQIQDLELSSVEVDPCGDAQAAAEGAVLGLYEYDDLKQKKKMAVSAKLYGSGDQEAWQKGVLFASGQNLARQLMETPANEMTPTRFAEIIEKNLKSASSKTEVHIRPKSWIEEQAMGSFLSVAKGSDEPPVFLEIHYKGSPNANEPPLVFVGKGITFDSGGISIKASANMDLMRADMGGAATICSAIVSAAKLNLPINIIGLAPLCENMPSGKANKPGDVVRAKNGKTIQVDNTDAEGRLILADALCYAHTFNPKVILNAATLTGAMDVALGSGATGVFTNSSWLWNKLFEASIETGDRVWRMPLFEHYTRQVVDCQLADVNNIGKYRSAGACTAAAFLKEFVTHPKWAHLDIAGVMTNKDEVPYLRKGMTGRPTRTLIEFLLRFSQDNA
UniProt Q8N1G4: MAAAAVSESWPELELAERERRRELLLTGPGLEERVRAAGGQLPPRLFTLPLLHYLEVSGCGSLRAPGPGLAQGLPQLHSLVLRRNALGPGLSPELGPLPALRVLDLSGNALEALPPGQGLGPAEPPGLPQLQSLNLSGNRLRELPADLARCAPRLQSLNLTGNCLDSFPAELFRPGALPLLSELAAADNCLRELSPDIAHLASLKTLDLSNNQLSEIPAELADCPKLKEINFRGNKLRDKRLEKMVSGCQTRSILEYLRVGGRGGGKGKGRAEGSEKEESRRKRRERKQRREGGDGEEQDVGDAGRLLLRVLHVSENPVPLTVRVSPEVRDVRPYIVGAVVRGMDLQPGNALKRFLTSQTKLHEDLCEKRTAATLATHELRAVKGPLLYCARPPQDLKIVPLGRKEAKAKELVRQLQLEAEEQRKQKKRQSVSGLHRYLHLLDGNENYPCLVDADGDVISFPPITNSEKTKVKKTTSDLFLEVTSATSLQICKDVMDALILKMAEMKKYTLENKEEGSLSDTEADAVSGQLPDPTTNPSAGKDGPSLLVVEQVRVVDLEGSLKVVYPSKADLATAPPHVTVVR
UniProt Q9Y2Q5, whole entry, looked up: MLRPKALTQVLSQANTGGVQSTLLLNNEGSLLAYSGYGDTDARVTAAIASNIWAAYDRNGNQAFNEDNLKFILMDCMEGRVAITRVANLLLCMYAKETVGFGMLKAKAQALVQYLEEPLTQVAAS
UniProt Q96EM0: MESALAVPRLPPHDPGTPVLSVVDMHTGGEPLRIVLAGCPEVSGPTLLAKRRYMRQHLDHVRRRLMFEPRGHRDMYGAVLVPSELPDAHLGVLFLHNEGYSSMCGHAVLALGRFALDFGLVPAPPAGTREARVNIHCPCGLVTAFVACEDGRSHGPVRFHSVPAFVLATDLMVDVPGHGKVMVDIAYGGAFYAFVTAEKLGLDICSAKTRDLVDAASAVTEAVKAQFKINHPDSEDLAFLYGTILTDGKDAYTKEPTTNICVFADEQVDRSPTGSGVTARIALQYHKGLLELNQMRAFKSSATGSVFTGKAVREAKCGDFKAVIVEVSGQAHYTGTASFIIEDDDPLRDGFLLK
UniProt P48357: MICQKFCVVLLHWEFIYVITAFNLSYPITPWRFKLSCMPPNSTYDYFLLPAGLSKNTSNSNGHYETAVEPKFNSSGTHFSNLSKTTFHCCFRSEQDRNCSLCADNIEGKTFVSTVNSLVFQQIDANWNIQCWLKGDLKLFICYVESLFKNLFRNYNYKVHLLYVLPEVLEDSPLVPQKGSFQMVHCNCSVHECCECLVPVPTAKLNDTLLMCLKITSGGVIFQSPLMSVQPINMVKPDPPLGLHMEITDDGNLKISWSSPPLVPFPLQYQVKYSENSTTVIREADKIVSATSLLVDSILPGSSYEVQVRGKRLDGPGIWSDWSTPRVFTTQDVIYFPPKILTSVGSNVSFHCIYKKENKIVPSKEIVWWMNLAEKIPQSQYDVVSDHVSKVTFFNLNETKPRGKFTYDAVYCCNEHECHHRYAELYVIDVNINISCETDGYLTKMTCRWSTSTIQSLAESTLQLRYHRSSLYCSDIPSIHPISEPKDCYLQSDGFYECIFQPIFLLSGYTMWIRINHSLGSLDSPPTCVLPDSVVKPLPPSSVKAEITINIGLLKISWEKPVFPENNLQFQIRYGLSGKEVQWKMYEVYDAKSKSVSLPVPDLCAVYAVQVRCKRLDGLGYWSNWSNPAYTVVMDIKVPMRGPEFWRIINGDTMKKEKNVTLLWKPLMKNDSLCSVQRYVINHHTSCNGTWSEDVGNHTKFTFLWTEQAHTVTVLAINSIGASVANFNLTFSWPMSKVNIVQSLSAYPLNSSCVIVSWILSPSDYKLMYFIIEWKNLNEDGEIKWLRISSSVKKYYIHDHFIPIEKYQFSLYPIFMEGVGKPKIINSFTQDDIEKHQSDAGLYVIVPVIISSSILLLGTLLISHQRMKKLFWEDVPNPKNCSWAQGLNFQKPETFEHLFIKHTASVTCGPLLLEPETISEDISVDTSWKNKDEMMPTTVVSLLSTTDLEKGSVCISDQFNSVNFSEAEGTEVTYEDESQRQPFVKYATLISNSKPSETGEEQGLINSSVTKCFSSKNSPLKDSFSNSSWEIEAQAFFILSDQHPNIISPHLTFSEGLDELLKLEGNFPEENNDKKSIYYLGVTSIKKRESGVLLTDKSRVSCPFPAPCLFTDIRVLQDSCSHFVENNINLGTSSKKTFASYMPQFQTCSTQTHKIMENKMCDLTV
UniProt Q14657: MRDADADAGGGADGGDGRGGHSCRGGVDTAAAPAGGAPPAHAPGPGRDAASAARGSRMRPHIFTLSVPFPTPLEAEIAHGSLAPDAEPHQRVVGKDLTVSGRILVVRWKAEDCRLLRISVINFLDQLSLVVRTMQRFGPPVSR
UniProt O95202: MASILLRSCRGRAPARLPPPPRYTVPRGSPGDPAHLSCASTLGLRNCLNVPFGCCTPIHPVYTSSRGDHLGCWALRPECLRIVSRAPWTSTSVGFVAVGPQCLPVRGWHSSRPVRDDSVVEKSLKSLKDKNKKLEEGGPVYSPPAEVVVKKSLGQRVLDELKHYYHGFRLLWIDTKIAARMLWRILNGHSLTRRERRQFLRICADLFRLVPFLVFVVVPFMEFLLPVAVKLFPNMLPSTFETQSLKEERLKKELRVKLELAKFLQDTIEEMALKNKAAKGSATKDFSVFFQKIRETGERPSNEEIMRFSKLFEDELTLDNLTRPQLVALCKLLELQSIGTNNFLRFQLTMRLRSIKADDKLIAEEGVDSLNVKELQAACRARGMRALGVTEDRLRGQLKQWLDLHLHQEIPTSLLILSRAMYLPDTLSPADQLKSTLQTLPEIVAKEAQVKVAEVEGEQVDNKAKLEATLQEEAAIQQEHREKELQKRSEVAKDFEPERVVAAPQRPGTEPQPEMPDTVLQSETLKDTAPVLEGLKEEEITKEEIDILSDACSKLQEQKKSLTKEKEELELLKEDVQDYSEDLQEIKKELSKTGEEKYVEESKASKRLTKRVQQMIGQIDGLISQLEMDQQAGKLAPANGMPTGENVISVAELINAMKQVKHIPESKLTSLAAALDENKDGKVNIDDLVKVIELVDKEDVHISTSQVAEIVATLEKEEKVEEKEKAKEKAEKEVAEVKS

Experiments:
Assay in all cases: log2 fold change, soluble protein after heating vs DMSO (PISA); higher = thermal stabilisation; K562 cells, 10 uM, 30 min; active = over 0.2 and 3.5 SD of the protein, either way, in both replicates (recomputed)
[1] = compound: CS(=O)(=O)c1ccc(-c2cnc(N)c(C(=O)Nc3ccccc3)n2)cc1
In short: (§1)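 For each measurement, 10 μM compound was applied for 30 min to K562 cells at 2×10^6 cells/mL. Aliquots were heated for 3 min across 48°C-58°C, pooled, and extracted in PBS with 0.5% NP-40 at 4°C; the supernatant after 21,000xg for 90 min was soluble protein. This was quantified by TMTpro 16plex LC-MS/MS with channel sums equalised, and thermal stability was reported relative to control samples from duplicates, on a log2 fold-change scale.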

[2] = compound: C[C@@H](Oc1cc(-c2cnn(C3CCNCC3)c2)cnc1N)c1c(Cl)ccc(F)c1Cl [crizotinib]
In short: as §1

[3] = compound: C[C@@H]1COCCN1C2=NC(=NC(=C2)C3(CC3)S(=O)(=O)C)C4=C5C=CNC5=CC=C4
In short: as §1

[4] = compound: C[C@H](C1=CC=C(C=C1)C(=O)NC2=C3C=CNC3=NC=C2)N
In short: as §1

[5] = compound: C[C@H](Nc1ncnc2nc[nH]c12)c1cc2cccc(Cl)c2c(=O)n1-c1ccccc1 [duvelisib]
In short: as §1

[6] = compound: Cc1cc(Nc2cc(CN3CCOCC3)c3nc(C)c(Cc4ccc(Cl)cc4F)n3n2)n[nH]1 [gandotinib]
In short: as §1

[7] = compound: Cc1cc(Nc2cc(N3CCN(C)CC3)nc(Sc3ccc(NC(=O)C4CC4)cc3)n2)n[nH]1 [tozasertib]
In short: as §1

[8] = compound: Cc1cc(SCc2sc(-c3ccc(C(F)(F)F)cc3)nc2C)ccc1OCC(=O)O
In short: as §1

[9] = compound: Cc1ccc(-n2nc(C(C)(C)C)cc2NC(=O)Nc2ccc(OCCN3CCOCC3)c3ccccc23)cc1 [doramapimod]
In short: as §1

[10] = compound: Cc1ccc(C(=O)N(CCCN)[C@@H](c2nc3cc(Cl)ccc3c(=O)n2Cc2ccccc2)C(C)C)cc1 [ispinesib]
In short: as §1

Measured: log2 fold change

LANCL1 (UniProt O43813)
inactive: [1] -0.003 | [2] 0.011 | [3] -0.001 | [4] -0.095 | [5] 0.034 | [6] 0.008 | [7] -0.027 | [8] 0.007 | [9] -0.043 | [10] 0.021

LASP1 (UniProt Q14847)
inactive: [1] -0.041 | [2] -0.004 | [3] -0.026 | [4] -0.08 | [5] 0 | [6] -0.017 | [7] -0.009 | [8] -0.078 | [9] -0.032 | [10] 0

LRIF1 (UniProt Q5T3J3)
inactive: [1] 0.013 | [2] 0.011 | [3] -0.081 | [4] -0.18 | [5] 0.096 | [6] 0.045 | [7] 0.025 | [8] 0.02 | [9] 0.001 | [10] -0.036

LARS (UniProt Q9P2J5)
inactive: [1] 0.016 | [2] -0.078 | [3] -0.201 | [4] 0.327 | [5] -0.116 | [6] 0.082 | [7] 0.055 | [8] 0.106 | [9] 0.2 | [10] -0.236

LRRC57 (UniProt Q8N9N7)
inactive: [1] 0.047 | [2] -0.004 | [3] 0.066 | [4] -0.102 | [5] 0.028 | [6] -0.084 | [7] -0.052 | [8] 0.012 | [9] -0.015 | [10] 0.081

LCLAT1 (UniProt Q6UWP7)
inactive: [1] -0.042 | [2] 0.172 | [3] 0.022 | [4] -0.02 | [5] 0.022 | [6] -0.047 | [7] -0.031 | [8] -0.064 | [9] 0 | [10] 0.155

LMTK2 (UniProt Q8IWU2)
inactive: [1] 0.056 | [2] -0.076 | [3] -0.103 | [4] 0.292 | [5] -0.043 | [6] 0.249 | [7] 0.028 | [8] -0.099 | [9] 0.083 | [10] -0.043

LRPAP1 (UniProt P30533)
inactive: [1] 0.005 | [2] 0.061 | [3] -0.014 | [4] 0.016 | [5] 0.013 | [6] -0.009 | [7] 0.012 | [8] -0.01 | [9] -0.002 | [10] 0.257

LAMTOR4 (UniProt Q0VGL1)
inactive: [1] -0.158 | [2] -0.063 | [3] -0.182 | [4] 0.071 | [5] -0.007 | [6] 0.061 | [7] 0.048 | [8] 0.002 | [9] -0.063 | [10] -0.124

LRRC59 (UniProt Q96AG4)
inactive: [1] -0.019 | [2] 0 | [3] -0.02 | [4] -0.014 | [5] 0.025 | [6] -0.008 | [7] -0.022 | [8] 0 | [9] -0.023 | [10] 0.045

LANCL2 (UniProt Q9NS86)
inactive: [1] 0.007 | [2] 0.019 | [3] -0.018 | [4] -0.034 | [5] 0.008 | [6] 0.164 | [7] -0.02 | [8] -0.039 | [9] 0.005 | [10] 0.021

LAP3 (UniProt P28838)
inactive: [1] 0.007 | [2] 0.036 | [3] 0.051 | [4] -0.079 | [5] 0.02 | [6] -0.044 | [7] -0.016 | [8] -0.028 | [9] -0.036 | [10] 0.025

Random excerpt: 2 entries already listed.
LAMTOR4 (UniProt Q0VGL1)
inactive: [1] -0.158 | [2] -0.063 | [3] -0.182 | [4] 0.071 | [5] -0.007 | [6] 0.061 | [7] 0.048 | [8] 0.002 | [9] -0.063 | [10] -0.124

LRIF1 (UniProt Q5T3J3)
inactive: [1] 0.013 | [2] 0.011 | [3] -0.081 | [4] -0.18 | [5] 0.096 | [6] 0.045 | [7] 0.025 | [8] 0.02 | [9] 0.001 | [10] -0.036

The listing continues:

LRRC47 (UniProt Q8N1G4)
inactive: [1] 0.012 | [2] -0.002 | [3] 0.047 | [4] -0.089 | [5] 0 | [6] -0.013 | [7] 0.03 | [8] 0.011 | [9] -0.008 | [10] 0.044

LAMTOR2 (UniProt Q9Y2Q5)
inactive: [1] -0.112 | [2] -0.076 | [3] -0.144 | [4] 0.041 | [5] 0.01 | [6] 0.083 | [7] 0.019 | [8] 0.016 | [9] 0.069 | [10] -0.195

LIN7C (UniProt Q9NUP9)
inactive: [1] -0.029 | [2] -0.014 | [3] -0.017 | [4] -0.144 | [5] 0.058 | [6] -0.013 | [7] -0.001 | [8] 0.014 | [9] 0.042 | [10] -0.02

LRRC4B (UniProt Q9NT99)
inactive: [1] 0.024 | [2] 0.065 | [3] -0.006 | [4] -0.085 | [5] -0.004 | [6] 0.006 | [7] -0.057 | [8] -0.119 | [9] -0.183 | [10] 0.179

LDHA isoform 3 (UniProt P00338)
inactive: [1] 0.005 | [2] 0.029 | [3] 0.062 | [4] -0.079 | [5] 0.013 | [6] 0.005 | [7] -0.014 | [8] -0.012 | [9] -0.015 | [10] 0.05

LMAN1 (UniProt P49257)
inactive: [1] 0.042 | [2] -0.047 | [3] -0.039 | [4] 0.011 | [5] -0.01 | [6] 0.005 | [7] 0.002 | [8] -0.021 | [9] 0.025 | [10] -0.111

L3HYPDH (UniProt Q96EM0)
inactive: [1] 0.048 | [2] -0.089 | [3] 0.092 | [4] -0.004 | [5] 0.018 | [6] -0.041 | [7] -0.037 | [8] 0.004 | [9] 0.051 | [10] 0.044

LEPR (UniProt P48357)
inactive: [1] 0.028 | [2] 0.002 | [3] 0.003 | [4] -0.038 | [5] 0.059 | [6] 0.049 | [7] -0.019 | [8] -0.023 | [9] -0.002 | [10] 0.006

LHPP (UniProt Q9H008)
inactive: [1] 0.108 | [2] -0.046 | [3] -0.038 | [4] -0.048 | [5] 0.086 | [6] 0 | [7] -0.052 | [8] 0.013 | [9] -0.022 | [10] -0.001

LIG1 (UniProt P18858)
inactive: [1] 0.082 | [2] -0.05 | [3] 0.221 | [4] -0.039 | [5] 0.1 | [6] -0.147 | [7] 0.06 | [8] 0.142 | [9] -0.076 | [10] 0.004

LACTB2 (UniProt Q53H82)
inactive: [1] -0.005 | [2] 0.049 | [3] 0.01 | [4] -0.081 | [5] -0.017 | [6] -0.013 | [7] -0.006 | [8] -0.05 | [9] -0.035 | [10] 0.098

LMAN2 (UniProt Q12907)
inactive: [1] 0.04 | [2] 0.046 | [3] 0.087 | [4] -0.008 | [5] 0.011 | [6] 0.013 | [7] -0.01 | [8] 0.017 | [9] -0.007 | [10] -0.043

LAGE3 (UniProt Q14657)
inactive: [1] 0.046 | [2] 0.088 | [3] 0.022 | [4] -0.03 | [5] 0.094 | [6] 0.046 | [7] -0.035 | [8] -0.052 | [9] 0.052 | [10] 0.08

LIMS1 isoform 3 (UniProt P48059)
inactive: [1] -0.022 | [2] 0.069 | [3] 0.045 | [4] -0.032 | [5] 0.042 | [6] -0.007 | [7] 0.019 | [8] -0.012 | [9] -0.027 | [10] 0.069

LRRC41 (UniProt Q15345)
inactive: [1] -0.156

LETM1 (UniProt O95202)
inactive: [1] -0.001 | [2] -0.056 | [3] 0.072 | [4] -0.102 | [5] 0.012 | [6] -0.046 | [7] 0.008 | [8] 0.014 | [9] -0.009 | [10] 0.073

LAPTM4A (UniProt Q15012)
inactive: [1] -0.048

LRFN4 (UniProt Q6PJG9)
inactive: [1] 0.123 | [2] -0.023 | [3] 0.062 | [4] 0.067 | [5] 0.125 | [6] -0.149 | [7] -0.094 | [8] -0.145 | [9] 0.054 | [10] -0.05

LACTB (UniProt P83111)
inactive: [1] -0.044 | [2] -0.021 | [3] -0.033 | [4] 0.216 | [5] -0.087 | [6] 0.036 | [7] -0.061 | [8] -0.065 | [9] 0.071 | [10] -0.236
